In patent US9868695B2 (priority 2014, dated 2018):

Experiments:
HCT-116 = assay: Antiproliferative activity, MTT assay, HCT-116; assay type: cell-based; settings: Homo sapiens, 48 h
Method: (§1) Human colon cancer cell lines HCT-116 (NCI, passage no. 5) and Colo-205 116 (NCI, passage no. 3) were procured from National Cancer Institute, USA. HCT-116 and Colo-205 cells were grown in McCoy's 5A and RPMI growth medium respectively containing 10% FCS, 100 U penicillin and […] per mL medium. Cells were grown in CO2 incubator (Thermocon Electron Corporation, Houston, Tex.) at 37° C. with 95% humidity and 5% CO2 gas environment. Cells treated with tested materials were dissolved in DMSO while the untreated control cultures received only the vehicle (DMSO<0.2%). Cells were seeded in 96 well plates and exposed to tested compounds at various concentrations for 48 h time interval. MTT dye (2.5 mg/ml in PBS) was added 4 hrs priors to experiment termination. The plates were then centrifuged at 1500 rpm for 15 min and the supernatant was discarded, and MTT formazan crystals were dissolved in 150 μl of DMSO. The OD measured at 570 nm with reference wavelength of 620 nm.
(§2) The percentages of cell viability and growth inhibition were calculated using formulas: […]

Colo-205 = assay: Antiproliferative activity, MTT assay, Colo-205; assay type: cell-based; settings: Homo sapiens, 48 h
Method: as §1, §2

With COc1cc2c(c(OC)c1OC)-c1ccc(OC)c(=O)cc1[C@@H](NC(C)=O)CC2 [Compound 1, Colchicine] the IC50 (HCT-116) was 50 nM and the IC50 (Colo-205) was 32 nM.
